Results taken from PMC2780926.
The exact form of at least one protein or probe is not confirmed. Where cells or extracts were used, other partners may take part. Protein sequences can lack the tags named with them.

Molecular target: T1, ZBED6 (endogenous) (Mus musculus (C2C12 myoblasts)) (UniProt D2EAC2)
T1 sequence (looked up, limits assumed): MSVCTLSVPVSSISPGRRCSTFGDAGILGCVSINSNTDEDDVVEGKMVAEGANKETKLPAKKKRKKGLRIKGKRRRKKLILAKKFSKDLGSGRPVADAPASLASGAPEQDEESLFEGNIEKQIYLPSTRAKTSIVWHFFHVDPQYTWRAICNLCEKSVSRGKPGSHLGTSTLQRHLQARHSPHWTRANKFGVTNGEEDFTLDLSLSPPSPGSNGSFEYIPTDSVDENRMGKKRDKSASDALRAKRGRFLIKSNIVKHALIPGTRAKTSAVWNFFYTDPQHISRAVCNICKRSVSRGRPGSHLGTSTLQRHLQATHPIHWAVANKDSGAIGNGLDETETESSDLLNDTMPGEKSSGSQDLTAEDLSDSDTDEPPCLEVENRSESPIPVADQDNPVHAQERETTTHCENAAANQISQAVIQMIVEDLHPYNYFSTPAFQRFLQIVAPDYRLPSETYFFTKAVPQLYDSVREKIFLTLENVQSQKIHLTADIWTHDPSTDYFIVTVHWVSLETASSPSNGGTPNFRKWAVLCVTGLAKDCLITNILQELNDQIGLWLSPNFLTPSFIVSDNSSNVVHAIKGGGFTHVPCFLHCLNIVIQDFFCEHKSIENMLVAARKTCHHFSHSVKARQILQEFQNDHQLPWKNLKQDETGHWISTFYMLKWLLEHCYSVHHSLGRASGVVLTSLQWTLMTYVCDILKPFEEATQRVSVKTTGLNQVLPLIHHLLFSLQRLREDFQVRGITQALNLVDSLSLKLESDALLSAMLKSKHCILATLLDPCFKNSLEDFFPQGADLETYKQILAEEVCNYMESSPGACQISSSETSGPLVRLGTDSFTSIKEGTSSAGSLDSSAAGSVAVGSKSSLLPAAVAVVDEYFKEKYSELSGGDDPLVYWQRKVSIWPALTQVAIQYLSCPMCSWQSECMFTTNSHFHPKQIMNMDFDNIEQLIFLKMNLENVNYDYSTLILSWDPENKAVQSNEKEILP
Experiment: pull-down with SILAC LC-MS
Conditions: poly-dI/dC competitor, pull-down: 50 mM Tris pH 8, 150 mM NaCl, 0.25 mM EDTA, 0.5 mM DTT, 0.1% Tween-20, 0.5 mg/ml BSA, 200 ug/ml poly-dI/dC, RT, protein in an extract, label: 5'-biotin on strand 1

Row | Sequence | binding signal (fold enrichment q over Q) (n = 2) | binding signal (reference for 9.0-fold q/Q enrichment) (two ZBED6 peptides seen in Q sample)
1 | GATCCTTCGCCTAGGCTCGCAGCGCGGGAGCGA (double strand) [IGF2-q capture oligonucleotide] | 9 | 
2 | GATCCTTCGCCTAGGCTCACAGCGCGGGAGCGA (double strand) [IGF2-Q capture oligonucleotide] |  | 1
